Experimental data taken from PubChem BioAssay AID328 (DTP/NCI, 2004).
The list is a part of this screen's results and no random one: it is rich in T/C values a quarter to a half above the control, in often repeated tests (any T/C) and in doses without a T/C. Other doses and runs of a compound stand elsewhere. T/C: endpoint of the treated group in % of that of the vehicle group. Some doses have a count of surviving animals in place of a T/C: the source files T/C as zero there, which appears to mark a toxic dose or a test without result, not a measured value. Some doses without a T/C left all or most animals alive at the check, yet need not have been tolerated: survival well below the control is almost never listed, so the zero probably covers shortened survival too. Survivors were counted at the toxicity check, usually on the fifth day, unless a day is given; later deaths do not show. Schedules are NCI's codes, read here as Q, the interval in days (D) or hours (H), X, the number of doses. Some entries hold several experiments; the results are listed from low to high. Brackets with × give the number of equal values in this list. For survival time, this PubChem deposit counts one and a half times the control or more as active, and values a quarter to a half above the control carry no call in these data; other NCI protocols may use other cut-offs. Some T/C values carry the count of animals alive at the toxicity check (mostly the fifth day); without a count, all were alive then.

System: BDF1 mice, P388 leukemia ip, median survival T/C
Assay: NCI In Vivo Anticancer Drug Screen. Data for tumor model P388 Leukemia (intraperitoneal) in B6D2F1 (BDF1) mice
Details: T/C endpoint: median survival time, higher T/C = longer survival
How it was run: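 Antitumour effect was judged in vivo: survival in drug-treated mice, normalised to that of vehicle-dosed controls, gives the reported T/C.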

[1] = dose: 100.0 mg/kg/injection, schedule: Q01DX009 (ip), vehicle: Klucel (hydroxypropylcellulose) (HPC)
[2] = dose: 6.25 mg/kg/injection, schedule: Q01DX009 (ip), vehicle: water
[3] = dose: 50.0 mg/kg/injection, schedule: Q01DX009 (ip), vehicle: saline with Tween-80
[4] = dose: 100.0 mg/kg/injection, schedule: Q01DX009 (ip), vehicle: saline with Tween-80
[5] = dose: 200.0 mg/kg/injection, schedule: Q01DX009 (ip), vehicle: saline with Tween-80
[6] = dose: 400.0 mg/kg/injection, schedule: Q04DX003 (ip), vehicle: saline with Tween-80
[7] = dose: 200.0 mg/kg/injection, schedule: Q01DX009 (ip), vehicle: saline
[8] = dose: 25.0 mg/kg/injection, schedule: Q01DX009 (ip), vehicle: Klucel (hydroxypropylcellulose) (HPC)
[9] = dose: 50.0 mg/kg/injection, schedule: Q01DX009 (ip), vehicle: Klucel (hydroxypropylcellulose) (HPC)
[10] = dose: 6.25 mg/kg/injection, schedule: Q01DX009 (ip), vehicle: saline
[11] = dose: 25.0 mg/kg/injection, schedule: Q01DX009 (ip), vehicle: saline
[12] = dose: 50.0 mg/kg/injection, schedule: Q01DX009 (ip), vehicle: saline
[13] = dose: 100.0 mg/kg/injection, schedule: Q01DX009 (ip), vehicle: saline
[14] = dose: 18.0 mg/kg/injection, schedule: Q01DX009 (ip), vehicle: Klucel (hydroxypropylcellulose) (HPC)
[15] = dose: 28.0 mg/kg/injection, schedule: Q01DX009 (ip), vehicle: Klucel (hydroxypropylcellulose) (HPC)

CC(=O)Oc1ccc(N2C(=O)C=CC2=O)cc1
survivor count (dose: 21.0 mg/kg/injection, schedule: Q04DX003 (ip), vehicle: Klucel (hydroxypropylcellulose) (HPC)): 2 of 6

CN(C)c1ccc2cc3ccc(N(C)C)cc3nc2c1
survivor count (dose: 100.0 mg/kg/injection, schedule: Q04DX003 (ip), vehicle: water): 0 of 4

O=NN(CCCl)C(=O)N[C@H]1CCCC[C@H]1Cl
T/C (dose: 3.5 mg/kg/injection, schedule: Q01DX009 (ip), vehicle: Klucel (hydroxypropylcellulose) (HPC)): 133 and 138 % of control
T/C (dose: 8.0 mg/kg/injection, schedule: Q04DX003 (ip), vehicle: Klucel (hydroxypropylcellulose) (HPC)): 125 % of control
survivor count (dose: 67.0 mg/kg/injection, schedule: Q01DX009 (ip), vehicle: Klucel (hydroxypropylcellulose) (HPC)): 6 of 6
T/C (dose: 67.0 mg/kg/injection, schedule: Q04DX003 (ip), vehicle: Klucel (hydroxypropylcellulose) (HPC)): 130 % of control
survivor count [1]: 6 of 6
T/C (dose: 100.0 mg/kg/injection, schedule: Q04DX003 (ip), vehicle: Klucel (hydroxypropylcellulose) (HPC)): 130 % of control
survivor count (dose: 150.0 mg/kg/injection, schedule: Q01DX009 (ip), vehicle: Klucel (hydroxypropylcellulose) (HPC)): 6 of 6
T/C (dose: 150.0 mg/kg/injection, schedule: Q04DX003 (ip), vehicle: Klucel (hydroxypropylcellulose) (HPC)): 135 % of control

CCCCCCCCCCC[CH2][Hg][CH2]CCCCCCCCCCC
survivor count (dose: 400.0 mg/kg/injection, schedule: Q04DX003 (ip), vehicle: Klucel (hydroxypropylcellulose) (HPC)): 6 of 6

O=C1c2ccccc2C(=O)N1c1cc(OCc2ccccc2)cc(OCc2ccccc2)c1
T/C [2]: 134 % of control
survivor count [2]: 5 of 6
survivor count (dose: 100.0 mg/kg/injection, schedule: Q01DX009 (ip), vehicle: water): 6 of 6

O=C(CCCl)N1CCN(C(=O)CCCl)CC1
T/C [1]: 140 % of control
T/C (dose: 200.0 mg/kg/injection, schedule: Q01DX009 (ip), vehicle: Klucel (hydroxypropylcellulose) (HPC)): 125 % of control [5 of 6 alive]

N#CC1C(=O)NC(=O)C(C#N)C12CCCCC2 (stereo not given)
T/C [3]: 127 % of control
T/C [4]: 133 % of control [5 of 6 alive]
T/C [5]: 127 % of control [4 of 6 alive]
survivor count (dose: 400.0 mg/kg/injection, schedule: Q01DX005 (ip), vehicle: saline with Tween-80): 3 of 6
survivor count [6]: 3 of 6

O=C1CCCc2ccccc2N1
survivor count [1]: 6 of 6

CN[C@H]1CCc2cc(OC)c(OC)c(OC)c2-c2ccc(OC)c(=O)cc21
T/C (dose: 2.5 mg/kg/injection, schedule: Q01DX009 (ip), vehicle: saline): 125 % of control
T/C (dose: 5.0 mg/kg/injection, schedule: Q01DX009 (ip), vehicle: saline): 127 % of control
survivor count (dose: 20.0 mg/kg/injection, schedule: Q01DX009 (ip), vehicle: saline): 6 of 6

CC(C)SC=O
T/C [7]: 136 % of control

CC(C)(C)SC(=O)C[Si](C)(C)C
survivor count [6]: 5 of 6

CCNC(C)(C)C(SSSC(c1cccs1)C(C)(C)NCC)c1cccs1 (stereo not given)
survivor count (dose: 400.0 mg/kg/injection, schedule: Q01DX001 (ip), vehicle: saline): 0 of 6

Nc1cccc2c1C(=O)C=CC2=O
T/C (dose: 6.5 mg/kg/injection, schedule: Q04DX003 (ip), vehicle: saline): 130 % of control
survivor count (dose: 13.0 mg/kg/injection, schedule: Q04DX003 (ip), vehicle: saline): 3 of 6

COc1ccc(OC)c(NC(=O)NC(c2ccccc2)c2ccccc2)c1
survivor count [8]: 6 of 6
survivor count [9]: 6 of 6

CC[n+]1ccc(Cc2ccc([N+](=O)[O-])cc2)cc1
survivor count [9]: 1 of 6
T/C [1]: 127 % of control
survivor count [1]: 0 of 6

CC(C)(C)Cc1cc(O)c2c(c1O)C(=O)c1ccccc1C2=O
survivor count (dose: 200.0 mg/kg/injection, schedule: Q04DX003 (ip), vehicle: saline with Tween-80): 6 of 6
survivor count [6]: 6 of 6

CCC[CH2][Sn]([CH2]CCC)([O]C(=O)CCC(C)=O)[O]C(=O)CCC(C)=O
survivor count (dose: 12.5 mg/kg/injection, schedule: Q01DX009 (ip), vehicle: Klucel (hydroxypropylcellulose) (HPC)): 2 of 6
survivor count [8]: 0 of 6
survivor count [9]: 0 of 6

CCOC(=O)C(C)[P+](c1ccccc1)(c1ccccc1)c1ccccc1 (stereo not given)
T/C (dose: 1.5 mg/kg/injection, schedule: Q01DX009 (ip), vehicle: saline): 127 % of control
survivor count (dose: 6.0 mg/kg/injection, schedule: Q01DX009 (ip), vehicle: saline): 0 of 6

C=CCC(CC)C(=O)O (stereo not given)
survivor count [7]: 5 of 6

C[N+]1=C2CCCC2=C(N)CC1
survivor count (dose: 6.25 mg/kg/injection, schedule: Q04DX003 (ip), vehicle: saline): 6 of 6

Nc1cc2c(c[n+](Cc3ccccc3)c3ccccc23)c2ccccc12
T/C (dose: 1.56 mg/kg/injection, schedule: Q04DX003 (ip), vehicle: other): 125 % of control
survivor count (dose: 6.25 mg/kg/injection, schedule: Q04DX003 (ip), vehicle: other): 6 of 6
survivor count (dose: 12.5 mg/kg/injection, schedule: Q04DX003 (ip), vehicle: other): 3 of 6
survivor count (dose: 25.0 mg/kg/injection, schedule: Q04DX003 (ip), vehicle: other): 0 of 6

O=S(=O)(O)c1c(Cl)c(Cl)c(Cl)c(Cl)c1Cl
survivor count (dose: 400.0 mg/kg/injection, schedule: Q04DX003 (ip), vehicle: suspension in saline): 2 of 6

C=CC(OC(C)=O)OC(C)=O
T/C (dose: 12.0 mg/kg/injection, schedule: Q01DX009 (ip), vehicle: saline with Tween-80): 125 % of control
survivor count (dose: 25.0 mg/kg/injection, schedule: Q01DX009 (ip), vehicle: saline with Tween-80): 6 of 6
survivor count (dose: 50.0 mg/kg/injection, schedule: Q04DX003 (ip), vehicle: saline with Tween-80): 0 of 6

O=P(N1CCOCC1)(N1CC1)N1CC1
T/C [10]: 131 % of control
survivor count [11]: 6 of 6
survivor count [12]: 6 of 6 (2×) and 7 of 7
survivor count [13]: 3 of 6

CCOC(=O)N=C=O
survivor count (dose: 400.0 mg/kg/injection, schedule: Q01DX009 (ip), vehicle: water): 4 of 6

CCO/C=C(\C#N)C(=O)O
survivor count [4]: 6 of 6

COc1ccc2c(c1OC)C1C3CC=CC3C2C2=[N+]1CCc1cc3c(cc12)OCO3 (stereo not given)
survivor count (dose: 3.12 mg/kg/injection, schedule: Q01DX009 (ip), vehicle: Klucel (hydroxypropylcellulose) (HPC)): 0 of 6
T/C [14]: 125 % of control
survivor count [14]: 4 of 6
T/C [15]: 135 % of control (2×)
survivor count [15]: 3 of 6
survivor count (dose: 40.0 mg/kg/injection, schedule: Q01DX009 (ip), vehicle: Klucel (hydroxypropylcellulose) (HPC)): 1 of 6, 3 of 6, 5 of 6

C=C1C(=O)O[C@@H]2[C@H](O)[C@@H](C)[C@@H]3C=CC(=O)[C@@]3(C)[C@H](OC(=O)C=C(C)C)[C@H]12
T/C (dose: 3.12 mg/kg/injection, schedule: Q01DX009 (ip), vehicle: saline): 129 % of control
T/C [10]: 131 % of control
T/C (dose: 12.5 mg/kg/injection, schedule: Q01DX009 (ip), vehicle: saline): 137 % of control
survivor count [11]: 6 of 6
survivor count [12]: 0 of 6
survivor count [13]: 0 of 6
survivor count [7]: 0 of 6

O=S(=O)(CCl)OCCCl
T/C [3]: 139 % of control
T/C [4]: 131 % of control
survivor count [5]: 0 of 6

COc1cc(C(=O)N(CCCl)N=O)cc(OC)c1OC
survivor count (dose: 400.0 mg/kg/injection, schedule: Q01DX009 (ip), vehicle: saline with Tween-80): 3 of 6

NNC(=O)c1ccncc1
survivor count [11]: 6 of 6
survivor count [12]: 6 of 6
T/C [13]: 130 % of control
survivor count [13]: 6 of 6
survivor count [7]: 3 of 6
